From PMC11323726
These are yes or no findings as the source states them, for the method shown. Tags and fused reporters may be left off the sequences shown.

Chains of the proteins cited; added tags and fusions are not shown.
UniProt A0QT91: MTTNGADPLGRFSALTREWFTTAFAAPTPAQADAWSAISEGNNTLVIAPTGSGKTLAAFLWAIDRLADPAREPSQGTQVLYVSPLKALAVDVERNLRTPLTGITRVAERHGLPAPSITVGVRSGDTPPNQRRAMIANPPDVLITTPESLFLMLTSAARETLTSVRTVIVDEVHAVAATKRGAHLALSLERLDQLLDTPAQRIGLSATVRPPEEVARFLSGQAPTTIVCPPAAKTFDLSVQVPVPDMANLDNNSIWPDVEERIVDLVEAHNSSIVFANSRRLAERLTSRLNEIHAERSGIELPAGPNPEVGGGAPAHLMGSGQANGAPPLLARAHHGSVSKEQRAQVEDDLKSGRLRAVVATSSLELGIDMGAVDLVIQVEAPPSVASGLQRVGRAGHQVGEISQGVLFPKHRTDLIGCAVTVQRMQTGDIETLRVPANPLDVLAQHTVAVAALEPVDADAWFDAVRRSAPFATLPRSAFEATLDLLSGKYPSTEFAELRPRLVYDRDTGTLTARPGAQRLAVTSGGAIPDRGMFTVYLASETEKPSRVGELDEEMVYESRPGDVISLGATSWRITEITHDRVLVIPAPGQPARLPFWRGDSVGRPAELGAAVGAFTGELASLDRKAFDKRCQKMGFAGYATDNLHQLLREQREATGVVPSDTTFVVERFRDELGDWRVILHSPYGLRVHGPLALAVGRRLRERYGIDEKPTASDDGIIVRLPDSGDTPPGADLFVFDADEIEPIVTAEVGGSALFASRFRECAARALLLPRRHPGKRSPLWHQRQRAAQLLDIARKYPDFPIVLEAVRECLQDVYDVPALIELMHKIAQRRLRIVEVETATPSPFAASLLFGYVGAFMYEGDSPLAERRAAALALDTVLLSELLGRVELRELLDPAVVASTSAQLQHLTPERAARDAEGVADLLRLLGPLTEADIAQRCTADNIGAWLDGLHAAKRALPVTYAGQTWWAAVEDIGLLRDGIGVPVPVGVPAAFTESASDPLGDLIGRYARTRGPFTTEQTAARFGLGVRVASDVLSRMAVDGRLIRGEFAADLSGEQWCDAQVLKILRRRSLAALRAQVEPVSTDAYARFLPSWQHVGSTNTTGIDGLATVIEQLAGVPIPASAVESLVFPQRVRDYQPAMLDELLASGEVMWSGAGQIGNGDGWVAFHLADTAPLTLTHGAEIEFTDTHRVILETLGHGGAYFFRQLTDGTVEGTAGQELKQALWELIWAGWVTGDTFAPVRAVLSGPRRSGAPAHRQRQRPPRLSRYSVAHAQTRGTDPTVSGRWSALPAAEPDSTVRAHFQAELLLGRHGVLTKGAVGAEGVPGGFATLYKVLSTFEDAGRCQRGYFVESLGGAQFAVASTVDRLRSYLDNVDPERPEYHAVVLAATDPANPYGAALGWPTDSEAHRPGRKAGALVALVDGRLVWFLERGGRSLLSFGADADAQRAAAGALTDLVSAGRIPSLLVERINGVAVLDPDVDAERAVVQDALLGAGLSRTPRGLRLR

Biological target: Mycobacterium smegmatis Lhr helicase (M. smegmatis) (UniProt A0QT91)
Experiment: SEC; recombinant Lhr and Nei2 mixed in vitro, then gel filtration; conditions not given; both purified

binding: no binding
B1: Mycobacterium smegmatis Nei2 (enzyme, UniProt A0QT90 1-252)
chain: MPEGDTVFHTAAALRAALEGKTLTRCDVRVPRYATVDLSGAVVDEVLSRGKHLFIRAGSASIHSHLKMEGAWRIGHTKVAPHRIRIVLETADTRAIGIDLGILEVLDRGTDMDAVAYLGPDLLGPDWEPRVAADNLAADPDRPLAQALLDQRVMAGVGNVYCNELCFVFGRLPTAPVGTLKDPLRVVQRARDMLWLNRSRWNRTTTGDTRNGRQLWVYGRAGEPCRRCGTLIQTDRGGERVTYWCPVCQTAS
